Measurements from article PMC5437272.
These are yes or no findings as the source states them, for the method shown. Binding seen in cells or lysates may run through a third protein. These calls come from enrichment with a bait or labelling near it, and not all partners need be listed.

Amino acid sequences for entries named in this document (tags omitted). A change or cut given only in a name is not applied to a line headed by its entry. Residues count along the entry.
UniProt Q9DCB8: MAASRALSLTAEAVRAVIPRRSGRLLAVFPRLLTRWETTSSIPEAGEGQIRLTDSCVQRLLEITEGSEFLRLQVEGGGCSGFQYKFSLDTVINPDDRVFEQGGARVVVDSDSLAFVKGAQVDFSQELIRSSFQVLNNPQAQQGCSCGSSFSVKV
UniProt Q6P4F2, residues 53-183: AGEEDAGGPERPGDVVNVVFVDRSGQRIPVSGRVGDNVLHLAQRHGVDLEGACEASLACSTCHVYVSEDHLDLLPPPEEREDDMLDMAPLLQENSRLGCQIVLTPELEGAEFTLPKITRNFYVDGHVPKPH

Molecular target: ISCA2-Flag (mouse ISCA2 with a C-terminal Flag epitope) (mouse) (UniProt Q9DCB8)
Assay: affinity purification with mass spectrometry; Flag M2 resin IP from mitochondria-enriched extracts of HeLa cells expressing one C-terminally Flag-tagged mouse bait; crude eluates analysed by MudPIT; partners enriched 10 x over control IP and mitochondrial input; three biological replicates

binding: binds weakly
Substance: FDX2 (endogenous, HeLa) (from UniProt Q6P4F2 53-183)
